# In patent US20180265554A1:
# Protein sequences, listed by entry. Tags and fused reporters are not part of them.
# UniProt O60603: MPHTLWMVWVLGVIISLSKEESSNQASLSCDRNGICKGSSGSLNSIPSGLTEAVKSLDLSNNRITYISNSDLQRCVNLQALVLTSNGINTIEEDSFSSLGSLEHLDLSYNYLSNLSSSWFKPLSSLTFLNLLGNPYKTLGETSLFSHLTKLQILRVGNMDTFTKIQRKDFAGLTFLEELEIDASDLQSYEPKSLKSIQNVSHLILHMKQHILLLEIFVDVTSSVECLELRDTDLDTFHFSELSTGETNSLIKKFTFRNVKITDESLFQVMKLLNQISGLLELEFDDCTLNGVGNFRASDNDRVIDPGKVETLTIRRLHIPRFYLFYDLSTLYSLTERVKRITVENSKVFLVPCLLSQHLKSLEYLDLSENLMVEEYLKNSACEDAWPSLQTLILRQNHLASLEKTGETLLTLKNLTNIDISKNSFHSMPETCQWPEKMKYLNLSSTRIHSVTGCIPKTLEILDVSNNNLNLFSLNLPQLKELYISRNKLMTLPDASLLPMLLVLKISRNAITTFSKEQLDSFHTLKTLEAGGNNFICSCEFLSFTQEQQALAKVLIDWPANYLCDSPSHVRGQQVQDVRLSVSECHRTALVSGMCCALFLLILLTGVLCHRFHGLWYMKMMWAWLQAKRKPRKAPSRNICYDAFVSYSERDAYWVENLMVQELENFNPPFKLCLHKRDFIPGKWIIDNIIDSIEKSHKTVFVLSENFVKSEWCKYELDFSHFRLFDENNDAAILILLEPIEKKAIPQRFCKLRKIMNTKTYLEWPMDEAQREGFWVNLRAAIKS
# No constants are given. Whether binding was seen depends on the method and setting. Some entries that bind do so weakly or less than the wild type. Sequences can lack the tags named with a protein.
# Target: toll-like receptor 2 (hTLR2) on reporter cell line (Invivogen) (human (printed as hTLR2)) (UniProt O60603)
# Experiment: hTLR2 reporter cell line, NF-κB/AP-1-driven SEAP read-out; no direct binding assay
binder,measurement,value
"Amuc-1100 polypeptide (mature, recombinant from E. coli, N-terminal Met added, C-terminal His-Tag) (ligand, not shown: small tags and cut ends) MIVNSKRSELDKKISIAAKEIKSANAAEITPSRSSNEELEKELNRYAKAVGSLETAYKPFLASSALVPTTPTAFQNELKTFRDSLISSCKKKNILITDTSSWLGFQVYSTQAPSVQAASTLGFELKAINSLVNKLAECGLSKFIKVYRPQLPIETPANNPEESDEADQAPWTPMPLEIAFQGDRESVLKAMNAITGMQDYLFTVNSIRIRNERMMPPPIANPAAAKPAAAQPATGAASLTPADEAAAPAAPAIQQVIKPYMGKEQVFVQVSLNLVHFNQPKAQEPSE",binding,binds
